# The other results are listed elsewhere or left out.
# Experiments:
# Assay in all cases: glycan array binding signal (z-score within array); higher = stronger binding
# Settings in all cases: glycan notation: IUPAC condensed, linker removed
# [1] = target: Gal(b1-4)GlcNAc(b1-3)Gal(b1-4)Glc
# How it was run: (§1)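 Arrays were curated from the Consortium for Functional Glycomics database, 3228 in total, and kept only where the protein sequence was available. Binding is expressed as a within-array Z-score. This score was averaged across arrays of the same protein sequence at different concentrations or buffers and across linkers, and negative values can be read as non-binding.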
# [2] = target: Gal(b1-4)GlcNAc(b1-3)Gal(b1-4)GlcNAc
# How it was run: as §1
# [3] = target: Gal(b1-4)GlcNAc(b1-3)Gal(b1-4)GlcNAc(b1-2)Man(a1-3)[Gal(b1-4)GlcNAc(b1-3)Gal(b1-4)GlcNAc(b1-2)Man(a1-6)]Man(b1-4)GlcNAc(b1-4)GlcNAc
# How it was run: as §1
# [4] = target: Gal(b1-4)GlcNAc(b1-3)Gal(b1-4)GlcNAc(b1-2)Man(a1-3)[Gal(b1-4)GlcNAc(b1-3)Gal(b1-4)GlcNAc(b1-2)Man(a1-6)]Man(b1-4)GlcNAc(b1-4)[Fuc(a1-6)]GlcNAc
# How it was run: as §1
# [5] = target: Gal(b1-4)GlcNAc(b1-3)Gal(b1-4)GlcNAc(b1-2)[Gal(b1-4)GlcNAc(b1-3)Gal(b1-4)GlcNAc(b1-6)]Man(a1-6)[Gal(b1-4)GlcNAc(b1-3)Gal(b1-4)GlcNAc(b1-2)Man(a1-3)]Man(b1-4)GlcNAc(b1-4)GlcNAc
# How it was run: as §1
# [6] = target: Gal(b1-4)GlcNAc(b1-3)Gal(b1-4)GlcNAc(b1-2)[Gal(b1-4)GlcNAc(b1-3)Gal(b1-4)GlcNAc(b1-6)]Man(a1-6)[Gal(b1-4)GlcNAc(b1-3)Gal(b1-4)GlcNAc(b1-2)Man(a1-3)]Man(b1-4)GlcNAc(b1-4)[Fuc(a1-6)]GlcNAc
# How it was run: as §1
# [7] = target: Gal(b1-4)GlcNAc(b1-3)Gal(b1-4)GlcNAc(b1-3)Gal(b1-4)GlcNAc
# How it was run: as §1
# [8] = target: Gal(b1-4)GlcNAc(b1-3)Gal(b1-4)GlcNAc(b1-3)Gal(b1-4)GlcNAc(b1-2)Man(a1-3)[Gal(b1-4)GlcNAc(b1-3)Gal(b1-4)GlcNAc(b1-3)Gal(b1-4)GlcNAc(b1-2)Man(a1-6)]Man(b1-4)GlcNAc(b1-4)GlcNAc
# How it was run: as §1
# [9] = target: Gal(b1-4)GlcNAc(b1-3)Gal(b1-4)GlcNAc(b1-3)Gal(b1-4)GlcNAc(b1-2)Man(a1-3)[Gal(b1-4)GlcNAc(b1-3)Gal(b1-4)GlcNAc(b1-3)Gal(b1-4)GlcNAc(b1-2)Man(a1-6)]Man(b1-4)GlcNAc(b1-4)[Fuc(a1-6)]GlcNAc
# How it was run: as §1
# [10] = target: Gal(b1-4)GlcNAc(b1-3)Gal(b1-4)GlcNAc(b1-3)Gal(b1-4)GlcNAc(b1-2)[Gal(b1-4)GlcNAc(b1-3)Gal(b1-4)GlcNAc(b1-3)Gal(b1-4)GlcNAc(b1-6)]Man(a1-6)[Gal(b1-4)GlcNAc(b1-3)Gal(b1-4)GlcNAc(b1-3)Gal(b1-4)GlcNAc(b1-2)Man(a1-3)]Man(b1-4)GlcNAc(b1-4)[Fuc(a1-6)]GlcNAc
# How it was run: as §1
# [11] = target: Gal(b1-4)GlcNAc(b1-3)Gal(b1-4)GlcNAc(b1-3)Gal(b1-4)GlcNAc(b1-3)Gal(b1-4)GlcNAc(b1-2)Man(a1-3)[Gal(b1-4)GlcNAc(b1-3)Gal(b1-4)GlcNAc(b1-3)Gal(b1-4)GlcNAc(b1-3)Gal(b1-4)GlcNAc(b1-2)Man(a1-6)]Man(b1-4)GlcNAc(b1-4)GlcNAc
# How it was run: as §1
# [12] = target: Gal(b1-4)GlcNAc(b1-3)Gal(b1-4)GlcNAc(b1-3)Gal(b1-4)GlcNAc(b1-3)Gal(b1-4)GlcNAc(b1-2)Man(a1-3)[Gal(b1-4)GlcNAc(b1-3)Gal(b1-4)GlcNAc(b1-3)Gal(b1-4)GlcNAc(b1-3)Gal(b1-4)GlcNAc(b1-2)Man(a1-6)]Man(b1-4)GlcNAc(b1-4)[Fuc(a1-6)]GlcNAc
# How it was run: as §1
# [13] = target: Gal(b1-4)GlcNAc(b1-3)Gal(b1-4)GlcNAc(b1-3)Gal(b1-4)GlcNAc(b1-3)Gal(b1-4)GlcNAc(b1-2)[Gal(b1-4)GlcNAc(b1-3)Gal(b1-4)GlcNAc(b1-3)Gal(b1-4)GlcNAc(b1-3)Gal(b1-4)GlcNAc(b1-6)]Man(a1-6)[Gal(b1-4)GlcNAc(b1-3)Gal(b1-4)GlcNAc(b1-3)Gal(b1-4)GlcNAc(b1-3)Gal(b1-4)GlcNAc(b1-2)Man(a1-3)]Man(b1-4)GlcNAc(b1-4)[Fuc(a1-6)]GlcNAc
# How it was run: as §1
# [14] = target: Gal(b1-4)GlcNAc(b1-3)Gal(b1-4)GlcNAc(b1-3)Gal(b1-4)GlcNAc(b1-3)Gal(b1-4)GlcNAc(b1-3)Gal(b1-4)GlcNAc(b1-2)Man(a1-3)[Gal(b1-4)GlcNAc(b1-3)Gal(b1-4)GlcNAc(b1-3)Gal(b1-4)GlcNAc(b1-3)Gal(b1-4)GlcNAc(b1-3)Gal(b1-4)GlcNAc(b1-2)Man(a1-6)]Man(b1-4)GlcNAc(b1-4)GlcNAc
# How it was run: as §1
# [15] = target: Gal(b1-4)GlcNAc(b1-3)Gal(b1-4)GlcNAc(b1-3)Gal(b1-4)GlcNAc(b1-3)Gal(b1-4)GlcNAc(b1-3)Gal(b1-4)GlcNAc(b1-2)Man(a1-3)[Gal(b1-4)GlcNAc(b1-3)Gal(b1-4)GlcNAc(b1-3)Gal(b1-4)GlcNAc(b1-3)Gal(b1-4)GlcNAc(b1-3)Gal(b1-4)GlcNAc(b1-2)Man(a1-6)]Man(b1-4)GlcNAc(b1-4)[Fuc(a1-6)]GlcNAc
# How it was run: as §1
# [16] = target: Gal(b1-4)GlcNAc(b1-3)Gal(b1-4)GlcNAc(b1-3)Gal(b1-4)GlcNAc(b1-3)Gal(b1-4)GlcNAc(b1-3)Gal(b1-4)GlcNAc(b1-2)[Gal(b1-4)GlcNAc(b1-3)Gal(b1-4)GlcNAc(b1-3)Gal(b1-4)GlcNAc(b1-3)Gal(b1-4)GlcNAc(b1-3)Gal(b1-4)GlcNAc(b1-6)]Man(a1-6)[Gal(b1-4)GlcNAc(b1-3)Gal(b1-4)GlcNAc(b1-3)Gal(b1-4)GlcNAc(b1-3)Gal(b1-4)GlcNAc(b1-3)Gal(b1-4)GlcNAc(b1-2)Man(a1-3)]Man(b1-4)GlcNAc(b1-4)[Fuc(a1-6)]GlcNAc
# How it was run: as §1
# [17] = target: Gal(b1-4)GlcNAc(b1-3)Gal(b1-4)GlcNAc(b1-3)Gal(b1-4)GlcNAc(b1-3)Gal(b1-4)GlcNAc(b1-3)Gal(b1-4)GlcNAc(b1-3)Gal(b1-4)GlcNAc(b1-2)Man(a1-3)[Gal(b1-4)GlcNAc(b1-3)Gal(b1-4)GlcNAc(b1-3)Gal(b1-4)GlcNAc(b1-3)Gal(b1-4)GlcNAc(b1-3)Gal(b1-4)GlcNAc(b1-3)Gal(b1-4)GlcNAc(b1-2)Man(a1-6)]Man(b1-4)GlcNAc(b1-4)GlcNAc
# How it was run: as §1
# [18] = target: Gal(b1-4)GlcNAc(b1-3)Gal(b1-4)GlcNAc(b1-3)GalNAc
# How it was run: as §1
# [19] = target: Gal(b1-4)GlcNAc(b1-3)Gal(b1-4)GlcNAc(b1-3)[Gal(b1-4)GlcNAc(b1-3)Gal(b1-4)GlcNAc(b1-6)]GalNAc
# How it was run: as §1
binder,measurement,setting,value
SynCAM (Mus musculus) (protein) MASAVLPSGSQCAAAAAVAAAAAPPGLRLRLLLLLLSAAALIPTGDGQNLFTKDVTVIEGEVATISCQVNKSDDSVIQLLNPNRQTIYFRDFRPLKDSRFQLLNFSSSELKVSLTNVSISDEGRYFCQLYTDPPQESYTTITVLVPPRNLMIDIQKDTAVEGEEIEVNCTAMASKPATTIRWFKGNKELKGKSEVEEWSDMYTVTSQLMLKVHKEDDGVPVICQVEHPAVTGNLQTQRYLEVQYKPQVHIQMTYPLQGLTREGDAFELTCEAIGKPQPVMVTWVRVDDEMPQHAVLSGPNLFINNLNKTDNGTYRCEASNIVGKAHSDYMLYVYDPPTTIPPP,glycan array binding signal (z-score),[1],-0.237
same,glycan array binding signal (z-score),[2],0.298
same,glycan array binding signal (z-score),[3],2.96
same,glycan array binding signal (z-score),[4],0.981
same,glycan array binding signal (z-score),[5],0.285
same,glycan array binding signal (z-score),[6],0.69
same,glycan array binding signal (z-score),[7],-0.05
same,glycan array binding signal (z-score),[8],0.872
same,glycan array binding signal (z-score),[9],1.48
same,glycan array binding signal (z-score),[10],1.93
same,glycan array binding signal (z-score),[11],1.32
same,glycan array binding signal (z-score),[12],0.094
same,glycan array binding signal (z-score),[13],2.18
same,glycan array binding signal (z-score),[14],1.71
same,glycan array binding signal (z-score),[15],1.49
same,glycan array binding signal (z-score),[16],2.34
same,glycan array binding signal (z-score),[17],0.671
same,glycan array binding signal (z-score),[18],-1.14
same,glycan array binding signal (z-score),[19],0.945

# Rewritten bar-delimited: entries from further up
binder | measurement | setting | value
SynCAM (Mus musculus) (protein) MASAVLPSGSQCAAAAAVAAAAAPPGLRLRLLLLLLSAAALIPTGDGQNLFTKDVTVIEGEVATISCQVNKSDDSVIQLLNPNRQTIYFRDFRPLKDSRFQLLNFSSSELKVSLTNVSISDEGRYFCQLYTDPPQESYTTITVLVPPRNLMIDIQKDTAVEGEEIEVNCTAMASKPATTIRWFKGNKELKGKSEVEEWSDMYTVTSQLMLKVHKEDDGVPVICQVEHPAVTGNLQTQRYLEVQYKPQVHIQMTYPLQGLTREGDAFELTCEAIGKPQPVMVTWVRVDDEMPQHAVLSGPNLFINNLNKTDNGTYRCEASNIVGKAHSDYMLYVYDPPTTIPPP | glycan array binding signal (z-score) | [18] | -1.14
same | glycan array binding signal (z-score) | [19] | 0.945

# Reference: the supplement of paper PMC8728848
